This is an account of results in the supplement of paper PMC12819154, “High-throughput peptide-centric local stability assay extends protein–ligand identification to membrane proteins, tissues and bacteria” (Nature Structural & Molecular Biology, 2025).

The chains behind the UniProt entries cited, without tags or fusion partners. Where a name states a change or a piece, a line headed by the entry shows the natural chain unless it says otherwise.
UniProt Q9BRK5: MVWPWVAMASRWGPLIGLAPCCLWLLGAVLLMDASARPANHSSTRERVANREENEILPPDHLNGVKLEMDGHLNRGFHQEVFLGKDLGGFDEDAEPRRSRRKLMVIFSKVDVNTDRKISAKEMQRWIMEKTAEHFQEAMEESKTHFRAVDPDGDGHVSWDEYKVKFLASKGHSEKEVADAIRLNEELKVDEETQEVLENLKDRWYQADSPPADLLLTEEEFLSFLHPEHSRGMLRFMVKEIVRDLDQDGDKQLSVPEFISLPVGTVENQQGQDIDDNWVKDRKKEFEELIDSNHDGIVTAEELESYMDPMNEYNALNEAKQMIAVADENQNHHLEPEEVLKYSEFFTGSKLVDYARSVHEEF
UniProt Q99988: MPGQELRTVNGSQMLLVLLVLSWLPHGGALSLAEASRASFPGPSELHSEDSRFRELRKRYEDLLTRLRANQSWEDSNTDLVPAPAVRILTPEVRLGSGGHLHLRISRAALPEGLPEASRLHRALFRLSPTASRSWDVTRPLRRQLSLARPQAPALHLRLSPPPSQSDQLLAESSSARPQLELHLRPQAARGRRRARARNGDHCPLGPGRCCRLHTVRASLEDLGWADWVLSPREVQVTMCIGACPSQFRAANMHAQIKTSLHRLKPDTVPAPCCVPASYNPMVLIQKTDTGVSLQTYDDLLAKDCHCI
UniProt Q9BSU3: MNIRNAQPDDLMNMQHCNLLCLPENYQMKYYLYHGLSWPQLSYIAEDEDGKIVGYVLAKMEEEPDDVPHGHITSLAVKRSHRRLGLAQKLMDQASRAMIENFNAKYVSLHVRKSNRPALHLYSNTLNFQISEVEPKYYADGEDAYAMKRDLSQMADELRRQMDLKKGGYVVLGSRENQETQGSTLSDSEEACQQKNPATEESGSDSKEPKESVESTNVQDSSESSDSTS
UniProt Q9BRX5: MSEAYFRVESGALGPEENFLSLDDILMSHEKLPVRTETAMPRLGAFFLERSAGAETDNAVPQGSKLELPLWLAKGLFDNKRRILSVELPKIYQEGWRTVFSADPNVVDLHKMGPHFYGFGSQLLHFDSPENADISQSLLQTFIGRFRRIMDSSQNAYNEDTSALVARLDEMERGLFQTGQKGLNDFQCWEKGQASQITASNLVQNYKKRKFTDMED
UniProt Q99733: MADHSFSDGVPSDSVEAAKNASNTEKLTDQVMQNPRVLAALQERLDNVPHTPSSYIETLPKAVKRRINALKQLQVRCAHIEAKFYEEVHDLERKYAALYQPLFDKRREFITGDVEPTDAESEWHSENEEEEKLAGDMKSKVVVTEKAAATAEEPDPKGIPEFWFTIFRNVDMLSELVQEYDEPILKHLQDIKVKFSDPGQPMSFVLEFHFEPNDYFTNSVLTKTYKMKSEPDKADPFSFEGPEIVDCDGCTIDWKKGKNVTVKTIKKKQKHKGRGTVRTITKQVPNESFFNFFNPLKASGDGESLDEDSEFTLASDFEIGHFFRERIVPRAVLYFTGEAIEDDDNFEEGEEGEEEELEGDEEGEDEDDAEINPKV
UniProt Q99933: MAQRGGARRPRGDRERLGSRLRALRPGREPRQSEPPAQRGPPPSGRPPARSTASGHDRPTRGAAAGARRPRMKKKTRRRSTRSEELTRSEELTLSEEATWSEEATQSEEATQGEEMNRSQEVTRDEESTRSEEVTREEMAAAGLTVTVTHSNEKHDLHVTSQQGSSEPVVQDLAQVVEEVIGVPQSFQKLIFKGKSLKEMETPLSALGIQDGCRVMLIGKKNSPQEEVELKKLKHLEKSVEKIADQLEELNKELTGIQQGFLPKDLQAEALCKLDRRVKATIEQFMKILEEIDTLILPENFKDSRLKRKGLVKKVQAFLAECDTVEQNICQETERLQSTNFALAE
UniProt Q9BU64: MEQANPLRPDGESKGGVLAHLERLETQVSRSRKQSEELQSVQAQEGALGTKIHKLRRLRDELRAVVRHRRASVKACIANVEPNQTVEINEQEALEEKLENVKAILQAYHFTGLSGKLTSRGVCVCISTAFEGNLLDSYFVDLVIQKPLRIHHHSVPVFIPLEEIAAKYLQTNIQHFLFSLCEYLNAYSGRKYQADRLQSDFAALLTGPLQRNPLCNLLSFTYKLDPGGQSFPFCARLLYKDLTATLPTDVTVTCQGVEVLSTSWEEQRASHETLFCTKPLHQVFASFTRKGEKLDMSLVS
UniProt Q9BTY7: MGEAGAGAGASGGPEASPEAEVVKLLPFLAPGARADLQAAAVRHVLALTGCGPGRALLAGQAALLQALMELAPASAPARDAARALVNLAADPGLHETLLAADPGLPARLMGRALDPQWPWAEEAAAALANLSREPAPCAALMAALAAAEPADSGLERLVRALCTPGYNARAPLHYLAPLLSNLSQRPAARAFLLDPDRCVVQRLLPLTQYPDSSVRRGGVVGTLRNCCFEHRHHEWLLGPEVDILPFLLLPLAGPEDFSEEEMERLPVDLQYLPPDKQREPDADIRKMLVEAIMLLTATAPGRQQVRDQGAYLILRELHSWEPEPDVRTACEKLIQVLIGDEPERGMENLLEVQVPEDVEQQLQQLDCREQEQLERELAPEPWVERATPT
UniProt Q99583: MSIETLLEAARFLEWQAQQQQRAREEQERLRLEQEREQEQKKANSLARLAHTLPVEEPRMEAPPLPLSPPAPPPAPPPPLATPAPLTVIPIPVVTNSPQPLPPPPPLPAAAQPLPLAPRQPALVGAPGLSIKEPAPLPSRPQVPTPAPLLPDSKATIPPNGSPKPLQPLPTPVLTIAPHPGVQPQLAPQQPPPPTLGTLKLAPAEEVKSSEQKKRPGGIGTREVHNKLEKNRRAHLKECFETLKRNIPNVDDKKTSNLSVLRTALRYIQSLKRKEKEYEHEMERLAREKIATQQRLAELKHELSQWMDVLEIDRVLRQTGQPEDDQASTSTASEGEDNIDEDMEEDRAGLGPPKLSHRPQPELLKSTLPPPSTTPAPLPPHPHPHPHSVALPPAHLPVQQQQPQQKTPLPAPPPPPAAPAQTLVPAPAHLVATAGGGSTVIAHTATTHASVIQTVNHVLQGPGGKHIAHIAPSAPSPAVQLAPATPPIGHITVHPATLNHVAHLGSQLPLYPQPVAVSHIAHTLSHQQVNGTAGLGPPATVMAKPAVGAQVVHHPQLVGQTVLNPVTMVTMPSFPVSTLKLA
UniProt Q9BSG1: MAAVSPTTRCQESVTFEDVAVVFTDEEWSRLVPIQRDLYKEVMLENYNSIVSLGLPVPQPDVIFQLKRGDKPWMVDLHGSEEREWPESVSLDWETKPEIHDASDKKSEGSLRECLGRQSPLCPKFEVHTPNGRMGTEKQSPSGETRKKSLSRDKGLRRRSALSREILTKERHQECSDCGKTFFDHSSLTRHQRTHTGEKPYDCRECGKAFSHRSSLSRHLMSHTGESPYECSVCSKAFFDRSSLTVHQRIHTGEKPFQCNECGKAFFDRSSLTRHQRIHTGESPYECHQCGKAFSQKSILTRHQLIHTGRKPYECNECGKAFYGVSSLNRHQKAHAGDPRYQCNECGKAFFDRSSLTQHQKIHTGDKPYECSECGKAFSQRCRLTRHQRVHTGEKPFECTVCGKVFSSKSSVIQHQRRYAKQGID

The other results are listed elsewhere or left out. Small differences around the control level are noise.

Compound in the test: Cc1nc(Nc2ncc(C(=O)Nc3c(C)cccc3Cl)s2)cc(N2CCN(CCO)CC2)n1 [dasatinib]
Put plainly: log2 fold change of tryptic peptide abundance, ligand vs vehicle (limited proteolysis) (log2 ratio); higher = more trypsin-susceptible (destabilized). Particulars: ligand concentration: 5 uM; sample: K562 cleared lysate.

As for “SDF4 (peptide sequence: GHSEKEVADAIR, peptide start residue: 171) (UniProt Q9BRK5)”, the log2 fold change turned out to be 0.139.

“GDF15 (peptide sequence: ASFPGPSELHSEDSR, peptide start residue: 38) (UniProt Q99988)”: the log2 fold change is 0.295.

Turning to “NAA11 (peptide sequence: YYADGEDAYAMKR, peptide start residue: 137) (UniProt Q9BSU3)”, the log2 fold change was found to be 0.102.

As to “GINS3 (peptide sequence: TVFSADPNVVDLHK, peptide start residue: 98) (UniProt Q9BRX5)”, the log2 fold change came to 0.5.

As for “NAP1L4 (peptide sequence: NASNTEKLTDQVMQNPR, peptide start residue: 20) (UniProt Q99733)”, the log2 fold change is -0.0999.

As to “BAG1 (peptide sequence: SEEVTREEMAAAGLTVTVTHSNEK, peptide start residue: 131) (UniProt Q99933)”, the log2 fold change turned out to be 0.553.

As for “CENPO (peptide sequence: GGVLAHLER, peptide start residue: 15) (UniProt Q9BU64)”, the log2 fold change is 0.0152.

For the target “UniProt Q9BTY7 (peptide sequence: APLHYLAPLLSNLSQRPAAR, peptide start residue: 171)”, the log2 fold change was -0.163.

In the case of “MNT (peptide sequence: AGLGPPK, peptide start residue: 348) (UniProt Q99583)”, the log2 fold change is -0.608.

Take “UniProt Q9BSG1 (peptide sequence: ERHQECSDCGK, peptide start residue: 170)”: the log2 fold change was -0.145.
